We go through 4 molecules from publication PMC8062120.

Changes are numbered by the printed parent chain. Numbers in names are those of the source. No constants are given. Whether binding was seen depends on the method and setting. Some binding calls cover weakened binding; strength is not graded here. For some of these results: Tags and fused reporters may be left off the sequences shown.

The target in assay [1] is Myotilin Ig1Ig2^(220–452 R405K) (human) (UniProt Q9UBF9). The assay can be described thus: SAXS; batch SAXS at high or comparable concentrations; Ig1Ig2^250–444 up to 14.12 mg/ml, Ig1Ig2^250–498 up to 42.8 mg/ml, Ig1Ig2^220–452 up to 52 or 36.6 mg/ml, R405K up to 45.5 mg/ml; 20 mM HEPES, 150 mM NaCl, 5% glycerol, 1 mM DTT, pH 7.4 (one 220–452 set in 20 mM MES, 200 mM NaCl, pH 6.0); mass from I0, Rg, Dmax, P(r); monomer to dimer; both ….

Assay [2] addresses Myotilin Ig1Ig2^220–452 (human) (UniProt Q9UBF9). Nature of the assay: SAXS; batch SAXS, low end of the concentration series of Ig1Ig2^220–452 (series from 1 or 2.1 mg/ml); both purified.
In assay [3] the target is T1, Myotilin Ig1Ig2^250–444 (Ig1Ig2 tandem) (human), Q9UBF9.
T1 chain: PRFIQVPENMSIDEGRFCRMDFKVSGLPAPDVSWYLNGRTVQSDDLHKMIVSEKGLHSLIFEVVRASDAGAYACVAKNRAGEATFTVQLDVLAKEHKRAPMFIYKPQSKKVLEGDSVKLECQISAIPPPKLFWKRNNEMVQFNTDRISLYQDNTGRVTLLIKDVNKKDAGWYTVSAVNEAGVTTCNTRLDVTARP
Nature of the assay: SAXS; batch SAXS at high or comparable concentrations; Ig1Ig2^250–444 up to 14.12 mg/ml, Ig1Ig2^250–498 up to 42.8 mg/ml, Ig1Ig2^220–452 up to 52 or 36.6 mg/ml, R405K up to 45.5 mg/ml; 20 mM HEPES, 150 mM NaCl, 5% glycerol, 1 mM DTT, pH 7.4 (one 220–452 set in 20 mM MES, 200 mM NaCl, pH 6.0); mass from I0, Rg, Dmax, P(r); monomer to dimer; both …. The following applies: remark: other sources report otherwise.

The target of assay [4] is T2, Full-length myotilin with N-terminal thioredoxin tag (Trx-MYOT) (human), Q9UBF9.
T2 chain: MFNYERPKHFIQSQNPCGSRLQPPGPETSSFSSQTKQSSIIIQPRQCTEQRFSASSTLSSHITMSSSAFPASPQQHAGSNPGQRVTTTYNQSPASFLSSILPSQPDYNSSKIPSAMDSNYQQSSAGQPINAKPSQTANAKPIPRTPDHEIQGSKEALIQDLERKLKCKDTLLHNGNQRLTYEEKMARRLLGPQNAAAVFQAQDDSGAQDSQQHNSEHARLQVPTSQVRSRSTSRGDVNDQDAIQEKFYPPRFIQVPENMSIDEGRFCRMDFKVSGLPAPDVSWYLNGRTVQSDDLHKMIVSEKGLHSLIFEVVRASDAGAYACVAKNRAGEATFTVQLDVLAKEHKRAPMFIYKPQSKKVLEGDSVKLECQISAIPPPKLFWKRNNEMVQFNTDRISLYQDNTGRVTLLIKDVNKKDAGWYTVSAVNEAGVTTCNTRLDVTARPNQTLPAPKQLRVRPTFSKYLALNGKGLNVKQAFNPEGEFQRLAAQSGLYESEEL
The assay can be described thus: SEC-SAXS with RALLS; Superdex 200 increase 10/300, 20 mM Tris, 400 mM NaCl, 250 mM arginine, 5% glycerol, pH 7.5; molecular mass from RI/RALLS and from SAXS; only low concentrations of Trx-MYOT; both purified. Conditions: remark: other sources report otherwise.

B1: Myotilin Ig1Ig2^(220–452 R405K) (domain or fragment, UniProt Q9UBF9 220-452)
chain: LQVPTSQVRSRSTSRGDVNDQDAIQEKFYPPRFIQVPENMSIDEGRFCRMDFKVSGLPAPDVSWYLNGRTVQSDDLHKMIVSEKGLHSLIFEVVRASDAGAYACVAKNRAGEATFTVQLDVLAKEHKRAPMFIYKPQSKKVLEGDSVKLECQISAIPPPKLFWKRNNEMVQFNTDRISLYQDNTGKVTLLIKDVNKKDAGWYTVSAVNEAGVTTCNTRLDVTARPNQTLPAPK
In the case of B1, the binding entry in assay [1] is listed as “binds weakly”.

B2: Myotilin Ig1Ig2^220–452 (domain or fragment, UniProt Q9UBF9 220-452)
chain: B1 chain with K186R
With B2, in assay [2], the binding entry is on record as “no binding (condition: at low concentrations)”.

B3: Myotilin Ig1Ig2^250–444 (Ig1Ig2 tandem), Q9UBF9 250-444 (domain or fragment)
chain: T1 chain
B3: the binding result in assay [3] is recorded as “no binding (tested: up to 14.12 mg/ml)”.

B4: Full-length myotilin with N-terminal thioredoxin tag (Trx-MYOT), Q9UBF9 1-498 (natural protein)
chain: T2 chain
B4: the binding entry in assay [4] is recorded as “no binding”.
